{"source": "patent US20230181696A1", "about": "“POLYPEPTIDE DRUG FOR PREVENTING AND/OR TREATING NEUROBLASTOMA AND USE THEREOF” (ZHUHAI TENGBAI PHARMACEUTICAL CO., LTD., priority 2020, published 2023)", "tested_on": "renal metastases from human neuroblastoma (SH-SY5Y)", "test": "Renal metastases model of human neuroblastoma SH-SY5Y-luc2-GFP in nude mice (bioluminescence, affected-side kidney weight)", "type": "in vivo, athymic BALB/c/Nu/Nu nude mice", "details": "for BLI luminescence intensity / Bioluminescence BL1 Intensity / Kidney in affected side: Kidney weight / Kidney in affected side: Kidney weight-body mass index: mean±SEM; for Relative bioluminescence intensity (fold increase): relative to day 1; for Tumor inhibition rate: from BLI intensity; for Bioluminescence BL1 Intensity / Bioluminescence BL1 Tumor suppression rate: day 15; for Bioluminescence BL1 Tumor suppression rate / Suppression rale of renal weight in affected side: vs model control group; for Kidney in affected side: Kidney weight: end of experiment (day 16); for Kidney in affected side: Kidney weight-body mass index / Suppression rale of renal weight in affected side: end of experiment; for Increase of tumor luminescence intensity after 15 days: day 15 vs day 1, model control 493.7-fold", "key": {"[1]": {"details": "5 mg/kg i.v. once a day, Day 12"}, "[2]": {"details": "5 mg/kg i.v. once a day, Day 15"}, "[3]": {"details": "10 mg/kg i.v. once a day, Day 6"}, "[4]": {"details": "10 mg/kg i.v. once a day, Day 12"}, "[5]": {"details": "10 mg/kg i.v. once a day, Day 15"}, "[6]": {"details": "10 mg/kg i.v. x15, listed as HYD PEP06"}, "[7]": {"details": "20 mg/kg i.v. once a day, Day 6"}, "[8]": {"details": "20 mg/kg i.v. once a day, Day 12"}, "[9]": {"details": "20 mg/kg i.v. once a day, Day 15"}}, "note": "Where “and” joins values, the source holds several entries; their conditions need not be identical. Identical values can stand only once. Not every detail of the peptide structures is certain; ends, links or a residue may be inferred. Marks after values point to notes of the source that are not given here. Peptide text beside a SMILES is read from it."}
{"smiles": "CSCC[C@H](NC(=O)CNC(=O)CNC(=O)[C@H](CO)NC(=O)[C@H](CC(C)C)NC(=O)[C@@H]1CCCN1C(=O)[C@H](CO)NC(=O)[C@H](CC(N)=O)NC(=O)[C@H](CC(C)C)NC(=O)[C@H](C)NC(=O)[C@@H](NC(=O)[C@H](CC(C)C)NC(=O)[C@H](Cc1c[nH]cn1)NC(=O)[C@H](CC(C)C)NC(=O)[C@@H](NC(=O)[C@@H]1CCCN1C(=O)[C@H](CCC(N)=O)NC(=O)[C@H](Cc1ccccc1)NC(=O)[C@H](CC(=O)O)NC(=O)[C@H](CCCNC(=N)N)NC(=O)[C@H](Cc1c[nH]cn1)NC(=O)[C@H](CO)NC(=O)[C@H](Cc1c[nH]cn1)NC(=O)[C@H](CCSC)NC(=O)[C@H](CC(=O)O)NC(=O)CNC(=O)[C@H](CCCNC(=N)N)NC(=O)[C@H](CC(=O)O)NC(=O)CNC(=O)[C@@H](N)CCCNC(=N)N)C(C)C)C(C)C)C(=O)O", "note": "[HYD-PEP06] (H-RGDRGDMHSHRDFQPVLHLVALNSPLSGGM-OH)", "values": [{"measurement": "BLI luminescence intensity", "setting": "5 mg/kg i.v. once a day, Day 1 (grouping)", "result": "4.27±0.76 × 10^7p/s"}, {"measurement": "Relative bioluminescence intensity (fold increase)", "setting": "5 mg/kg i.v. once a day, Day 1", "result": "1.00 ± 0.00"}, {"measurement": "Tumor inhibition rate", "setting": "5 mg/kg i.v. once a day, Day 6", "result": 54.9, "unit": "%"}, {"measurement": "BLI luminescence intensity", "setting": "5 mg/kg i.v. once a day, Day 6", "result": "24.66±2.54 × 10^7p/s"}, {"measurement": "Relative bioluminescence intensity (fold increase)", "setting": "5 mg/kg i.v. once a day, Day 6", "result": "7.6 ± 1.8"}, {"measurement": "Tumor inhibition rate", "setting": "[1]", "result": 37.3, "unit": "%"}, {"measurement": "BLI luminescence intensity", "setting": "[1]", "result": "473.17±92.47 × 10^7p/s"}, {"measurement": "Relative bioluminescence intensity (fold increase)", "setting": "[1]", "result": "142.5 ± 33.4"}, {"measurement": "Tumor inhibition rate", "setting": "[2]", "result": 58.4, "unit": "%"}, {"measurement": "BLI luminescence intensity", "setting": "[2]", "result": "753.70 ± 149.24^∗∗∗ × 10^7p/s"}, {"measurement": "Relative bioluminescence intensity (fold increase)", "setting": "[2]", "result": "224.2 ± 46.9^∗∗∗"}, {"measurement": "Bioluminescence BL1 Intensity", "setting": "5 mg/kg i.v. x15", "result": "75.4±14.9 ∗ x 10^s p/s"}, {"measurement": "Bioluminescence BL1 Tumor suppression rate", "setting": "5 mg/kg i.v. x15", "result": 58.4, "unit": "%"}, {"measurement": "Kidney in affected side: Kidney weight", "setting": "5 mg/kg i.v. x15", "result": "1.537 g and 1.537 ± 0.183 g"}, {"measurement": "Kidney in affected side: Kidney weight-body mass index", "setting": "5 mg/kg i.v. x15", "result": "7.35% and 7.35±0.92 ∗ %"}, {"measurement": "Suppression rale of renal weight in affected side", "setting": "5 mg/kg i.v. x15", "result": 38.9, "unit": "%"}, {"measurement": "Increase of tumor luminescence intensity after 15 days", "setting": "5 mg/kg", "result": 224.2, "unit": "fold"}, {"measurement": "BLI luminescence intensity", "setting": "10 mg/kg i.v. once a day, Day 1 (grouping)", "result": "4.23±0.73 × 10^7p/s"}, {"measurement": "Relative bioluminescence intensity (fold increase)", "setting": "10 mg/kg i.v. once a day, Day 1", "result": "1.00 ± 0.00"}, {"measurement": "Tumor inhibition rate", "setting": "[3]", "result": 75.6, "unit": "%"}, {"measurement": "BLI luminescence intensity", "setting": "[3]", "result": "13.31±3.46 × 10^7p/s"}, {"measurement": "Relative bioluminescence intensity (fold increase)", "setting": "[3]", "result": "4.4 ± 1.3"}, {"measurement": "Tumor inhibition rate", "setting": "[4]", "result": 76.3, "unit": "%"}, {"measurement": "BLI luminescence intensity", "setting": "[4]", "result": "178.66±47.48^∗∗ × 10^7p/s"}, {"measurement": "Relative bioluminescence intensity (fold increase)", "setting": "[4]", "result": "71.4 ± 29.9^∗∗"}, {"measurement": "Tumor inhibition rate", "setting": "[5]", "result": 82.5, "unit": "%"}, {"measurement": "BLI luminescence intensity", "setting": "[5]", "result": "316.78 ± 55.71^∗∗∗ × 10^7p/s"}, {"measurement": "Relative bioluminescence intensity (fold increase)", "setting": "[5]", "result": "96.9 ± 29.6^∗∗∗"}, {"measurement": "Bioluminescence BL1 Intensity", "setting": "10 mg/kg i.v. x15", "result": "31.7±5.6 ∗∗∗ x 10^s p/s"}, {"measurement": "Bioluminescence BL1 Tumor suppression rate", "setting": "10 mg/kg i.v. x15", "result": 82.5, "unit": "%"}, {"measurement": "Kidney in affected side: Kidney weight", "setting": "10 mg/kg i.v. x15", "result": 1.130, "unit": "g"}, {"measurement": "Kidney in affected side: Kidney weight", "setting": "[6]", "result": "1.130±0.136 ∗∗∗ g"}, {"measurement": "Kidney in affected side: Kidney weight-body mass index", "setting": "10 mg/kg i.v. x15", "result": 5.42, "unit": "%"}, {"measurement": "Kidney in affected side: Kidney weight-body mass index", "setting": "[6]", "result": "5.42±0.67 ∗∗∗ %"}, {"measurement": "Suppression rale of renal weight in affected side", "setting": "10 mg/kg i.v. x15", "result": 55.1, "unit": "%"}, {"measurement": "Increase of tumor luminescence intensity after 15 days", "setting": "10 mg/kg", "result": 96.9, "unit": "fold"}, {"measurement": "BLI luminescence intensity", "setting": "20 mg/kg i.v. once a day, Day 1 (grouping)", "result": "4.19±0.67 × 10^7p/s"}, {"measurement": "Relative bioluminescence intensity (fold increase)", "setting": "20 mg/kg i.v. once a day, Day 1", "result": "1.00 ± 0.00"}, {"measurement": "Tumor inhibition rate", "setting": "[7]", "result": 81.0, "unit": "%"}, {"measurement": "BLI luminescence intensity", "setting": "[7]", "result": "10.40±3.01 × 10^7p/s"}, {"measurement": "Relative bioluminescence intensity (fold increase)", "setting": "[7]", "result": "2.8 ± 0.7"}, {"measurement": "Tumor inhibition rate", "setting": "[8]", "result": 86.0, "unit": "%"}, {"measurement": "BLI luminescence intensity", "setting": "[8]", "result": "105.73±20.43^∗∗∗ × 10^7p/s"}, {"measurement": "Relative bioluminescence intensity (fold increase)", "setting": "[8]", "result": "32.4 ± 8.7^∗∗∗"}, {"measurement": "Tumor inhibition rate", "setting": "[9]", "result": 91.1, "unit": "%"}, {"measurement": "BLI luminescence intensity", "setting": "[9]", "result": "161.64 ± 35.65^∗∗∗ × 10^7p/s"}, {"measurement": "Relative bioluminescence intensity (fold increase)", "setting": "[9]", "result": "51.6 ± 15.1^∗∗∗"}, {"measurement": "Bioluminescence BL1 Intensity", "setting": "20 mg/kg i.v. x15", "result": "16.2±3.6 ∗∗∗ x 10^s p/s"}, {"measurement": "Bioluminescence BL1 Tumor suppression rate", "setting": "20 mg/kg i.v. x15", "result": 91.1, "unit": "%"}, {"measurement": "Kidney in affected side: Kidney weight", "setting": "20 mg/kg i.v. x15", "result": "0.664 g and 0.664±0.073 ∗∗∗, & g"}, {"measurement": "Kidney in affected side: Kidney weight-body mass index", "setting": "20 mg/kg i.v. x15", "result": "3.12% and 3.12+0.34 ∗∗∗, & %"}, {"measurement": "Suppression rale of renal weight in affected side", "setting": "20 mg/kg i.v. x15", "result": 73.6, "unit": "%"}, {"measurement": "Increase of tumor luminescence intensity after 15 days", "setting": "20 mg/kg", "result": 51.6, "unit": "fold"}, {"measurement": "Tumor growth inhibition in SH-SY5Y renal metastases nude mouse model", "setting": "5, 10, 20 mg/kg i.v. x15, significant dose-effect relationship", "result": "significantly inhibit tumor growth"}]}
